Results as given in PubChem BioAssay AID2685 (National Center for Advancing Translational Sciences (NCATS), 2010).
The list shows a part of the results. Shown are side measurements of this screen, not its main read-out; they come without a call. Most of these compounds were active or inconclusive in the main read-out, so they are no random draw. The note in brackets gives the kind of curve behind each potency; many fits are weak.

Assay: qHTS Assay for Lipid Storage Modulators in Drosophila S3 Cells;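 on cell number change: cells counted by Cell Tracker Red CMTPX staining in the red channel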
Details: BODIPY lipid droplet fluorescence, 18-24 h; for cell number change: measured here: cell count max response, cells fed with added oleic acid
Summary of the method: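 Drosophila S3 cells got compounds at several concentrations plus oleic acid (400 uM solution). Laser-scanning cytometry with 488 nm excitation read lipid droplets at 500-530 nm and cells at 575-640 nm. Percent activity was relative to 20 uM Triacsin C.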

[1] = measured here: lipid fluorescence (Fed channel) AC50, cells fed with added oleic acid
[2] = measured here: cell number channel AC50, cells fed with added oleic acid

SMILES | cell number change | AC50 [1] | AC50 [2]
O=C(c1cncc(Br)c1)N1CCN(c2ccc(N3CCOCC3)nn2)CC1 | 13.9% | 29.1 µM [rising, single point] | –
COc1ccc(CCNC(=O)C2=CCN(S(=O)(=O)c3ccc(F)cc3)CC2)cc1OC | -35.8% | – | 1.03 µM [falling, partial curve, poor fit]
N#CCCN(Cc1cccnc1)S(=O)(=O)c1ccc2ccccc2c1 | -16.8% | 0.517 µM [falling, full curve] | 0.651 µM [falling, full curve, poor fit]
CC(C[N+](C)(C)C)OC(=O)C1(c2ccccc2)CCCC1 (centres undefined) | 13.5% | 18.4 µM [rising, single point] | –
CN(C)c1cccc(C(=O)OCCCC(=O)c2ccc(F)cc2)c1 | -9.5% | 0.00651 µM [rising, full curve, poor fit] | –
O=C(Nc1ccccc1)N1CCC(C(=O)N(Cc2ccco2)Cc2cccs2)CC1 | -44.7% | 18.4 µM [falling, single point] | 23.1 µM [falling, single point]
O=C(COC(=O)Cc1ccsc1)Nc1ccc(Cl)cn1 | -19.6% | 0.58 µM [falling, single point] | –
COC(=O)[C@H](Cc1ccccc1)[C@@H](C)OS(N)(=O)=O | 22.3% | – | –
NS(=O)(=O)c1ccc(NC(=O)CSc2nnc(NC3CC3)s2)cc1 | -7% | – | –
Cc1csc(NC(=O)c2ccc(C)c([N+](=O)[O-])c2)n1 | -50% | 4.61 µM [rising, full curve] | 8.2 µM [falling, partial curve]
CC/C(=N\NC(=O)COc1ccc(Br)cc1)c1ccc(OC)c(OC)c1 | – | 6.51 µM [rising, partial curve, poor fit] | 5.8 µM [rising, single point]
CS(=O)(=O)N1CCc2cc(C(=O)Nc3ccccc3Cl)ccc21 | 22.3% | – | –
COC(=O)Cn1nc(-c2ccccc2)c2ccccc21 | -36.9% | 29.1 µM [falling, single point] | 32.6 µM [falling, single point]
Cc1ccc(S(=O)(=O)N(C)C)cc1NC(=O)C(C)N(C)CCOc1ccc(Cl)cc1 (centres undefined) | 3.81% | 0.206 µM [falling, single point] | –
CC(CNC(=O)C(C)C)NC(=O)C(C)C (centres undefined) | -29.3% | 4.11 µM [falling, single point] | –
O=C(Nc1nnc(CCc2ccccc2)s1)c1cccc(F)c1 | -2.2% | 11.6 µM [rising, partial curve] | –
C[C@H](NC(N)=O)C(=O)N1CCN(S(=O)(=O)c2ccc3ccccc3c2)CC1 | 17.2% | 29.1 µM [rising, single point] | –
CCOC(=O)c1cc(NC(=O)Nc2ccccc2Cl)c(C)nc1C | -15.3% | 29.1 µM [falling, single point] | –
COc1cccc(Cn2cccc(NC(=O)NC3CCCCC3)c2=O)c1 | -6.25% | – | –
O=C(Cc1cccs1)Nn1c(Cc2cccs2)nc2ccccc2c1=O | -0.544% | 0.0058 µM [falling, full curve, poor fit] | –
O=C(O)C1CC=CCC1C(=O)NCCc1ccccc1 (centres undefined) | – | 20.6 µM [falling, partial curve] | –
O=c1[nH]c(SCc2cccc([N+](=O)[O-])c2)nc2[nH]ncc12 | 42.1% | 0.13 µM [falling, full curve, poor fit] | –
Cc1nc2ccc(C(=O)O)cc2c2c1CC(CN)O2 (centres undefined) | 3.7% | – | –
CC(=O)c1ccc(S(=O)(=O)NCc2ccc(C(=O)N(C)CC(=O)Nc3cccc(F)c3)cc2)cc1 | -7.39% | – | –
CCOc1ccc(NCC(=O)c2ccc(C)cc2)cc1 | -35.8% | 25.9 µM [falling, partial curve] | 23.1 µM [falling, single point]
CNC(=S)N/N=C/c1cn(CCOc2ccccc2OC)c2ccccc12 | 1.59% | 1.16 µM [falling, single point] | –
CCc1nnc(NS(=O)(=O)c2ccc(NC(=O)CCC(=O)OC)cc2)s1 | -4.72% | 3.26 µM [falling, single point] | –
CC1CCCN(C(=O)CSc2nnc3ccccn23)C1 (centres undefined) | -2.63% | 0.13 µM [rising, full curve, poor fit] | –
COc1cc2c(cc1OC)CN(C(=O)/C=C/c1ccc([N+](=O)[O-])cc1)CC2 | 2.92% | 11.6 µM [falling, single point] | –
Cc1c(C(=O)Nc2ccc3c(c2)CCC3)cccc1[N+](=O)[O-] | 40.6% | 5.17 µM [rising, partial curve] | 16.4 µM [rising, single point]

Of the compounds above, two have a COOH group.
SMILES | cell number change | AC50 [1] | AC50 [2]
O=C(O)C1CC=CCC1C(=O)NCCc1ccccc1 (centres undefined) | – | 20.6 µM [falling, partial curve] | –
Cc1nc2ccc(C(=O)O)cc2c2c1CC(CN)O2 (centres undefined) | 3.7% | – | –
